## Results of single-concentration screens

The chains behind the UniProt entries cited, without tags or fusion partners.
UniProt P9WFT3, whole entry: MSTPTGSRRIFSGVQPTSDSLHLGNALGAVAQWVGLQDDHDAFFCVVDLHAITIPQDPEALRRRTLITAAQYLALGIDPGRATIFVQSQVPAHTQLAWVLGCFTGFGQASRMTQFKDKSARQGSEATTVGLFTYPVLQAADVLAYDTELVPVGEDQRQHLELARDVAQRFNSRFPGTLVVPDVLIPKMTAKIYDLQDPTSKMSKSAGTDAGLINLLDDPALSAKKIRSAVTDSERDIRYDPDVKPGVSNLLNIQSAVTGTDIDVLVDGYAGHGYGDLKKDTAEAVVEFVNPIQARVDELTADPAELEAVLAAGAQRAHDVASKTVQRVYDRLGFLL

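Enzyme assay of tryptophanyl-tRNA synthetase; the read-out is not stated. Target: Tryptophan-tRNA ligase, Mycobacterium tuberculosis (UniProt P9WFT3). Tested at 10 µM. Higher most likely means stronger inhibition; the record gives no direction and few retests gave an IC50. Of about 65,000 compounds tested this way, about 64 (0.098%) reached 50% or more in at least one test.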

Values are the deposited “Percent Effect”, in %. The controls that fix the scale are not given in the record; negative values are as filed. Compounds were drawn at random from those tested, without regard to their results.

SMILES | percent effect
Cc1cc(C)n(CCN2CCC(N(C)Cc3noc(C4CC4)n3)C2)n1 (stereo not drawn) | -0.2138
Cc1cnc(N2CCC3(CC2)CC(NC(=O)C(C)C)CO3)nc1 (stereo not drawn) | 12.44
Cc1cccc(C)c1OC1CN(Cc2cnc(N3CCOCC3)nc2)C1 | 2.388
Cc1cnc(C(=O)N2C[C@@H]3[C@@H](C2)OCC(=O)N3CC2CCCC2)cn1 | 1.208
Cc1cccc(CN2C[C@@H]3COC[C@]3(CNC(=O)c3cccn3C)C2)n1 | -1.046
CCCNC(c1cccnc1)c1ccc(F)cc1F (stereo not drawn) | -1.088
CC(O)CN1CCC(CNCc2ccc(C#N)cc2)CC1 (stereo not drawn) | -1.11
CCOCc1ccc(NC(=O)NC2CCCn3nc(CC)nc32)cc1 (stereo not drawn) | -3.995
CC(C)NC(=O)Nc1ccc(-c2nc(C(C)C)no2)cc1 | -7.529
OC[C@@H](O)CN(CCC(F)(F)F)c1ncc(Br)cn1 | 2.542
Cc1cnn(C2CN(CCOc3ccccc3C#N)C2)c1 | -0.1361
CNC(=O)CC1CCN(C(=O)NCc2cn3c(C)cccc3n2)CC1 | -0.1961
Cc1cc(C[C@@H]2COC[C@@H]2NC(=O)Cn2c(=O)oc3ccccc32)on1 | 1.212
CCOCCS(=O)(=O)N(CC)Cc1ccc(Cl)s1 | -1.574
COC(C)C(=O)N(CC(N)=O)Cc1cccc(Oc2ccccc2)c1 (stereo not drawn) | -2.651
O=C(Nc1ccc2c(c1)OC1(CCCCC1)O2)c1ccc(=O)[nH]n1 | -3.187
COc1c(CNC2CCSc3ccc(F)cc32)c(C)nn1C (stereo not drawn) | 3.008
Clc1ccc(-n2nnnc2C2(NCc3ccco3)CCCCC2)cc1 | -1.152
COc1ccc(CN2CCC3(CC2)CC(c2cccnc2)CO3)cc1 (stereo not drawn) | -9.347
Cc1nc(CN2CCc3cnc(C(C)C)nc3C2)oc1C | 0.2571
O=C(Cc1ccc(O)c(Cl)c1)N1CCCCC1CCn1cccn1 (stereo not drawn) | 1.78
CO[C@H]1CNC[C@@H]1NC(=O)c1cc(C)nc2c(C)c(C)ccc12 | 1.31
NCCCNS(=O)(=O)Cc1ccc(Br)cc1 | 3.01
Cn1cc(NC(=O)N2CCN(Cc3cscn3)CC2)ccc1=O | 4.748
Cc1c(C(C)NC(=O)N2CCN(C3CCCC3)CC2)cnn1C (stereo not drawn) | -1.22
CCCNC(=O)NC(=O)CN1CCN(Cc2nccn2CC)CC1 | -0.416
CCn1c(=O)n(CCC(=O)N(C)Cc2ccc(C)o2)c2ccccc21 | -0.3589
c1cc(NCc2ccncc2)nc(C2CCCN2)c1 (stereo not drawn) | -6.537
Cc1cnc(NC(=O)c2cccc(CN(C)Cc3ccno3)c2)s1 | 1.511
Cc1nnc(N2C[C@H](C(=O)NCc3ccco3)[C@@H]3CCO[C@@H]3C2)s1 | 3.586
CC(Cn1ccnc1)NC(=O)N1CCCN(Cc2cccs2)CC1 (stereo not drawn) | -6.671
Cc1nc(-c2ccccc2)sc1C(=O)NCCNc1ncccn1 | 0.2924
CC(C)NC(=O)N1C[C@H]2C[C@H](C(=O)NCc3ccccc3)[C@@H](C1)O2 | 2.397
Cc1nc(C(=O)Nc2cccnc2)c(C(C)C)s1 | -4.465
CSc1cccc(NC(=O)CCC(=O)Nc2nccs2)c1 | -2.023
COCCN(CCOC)C(=O)NC1CCCCC1 | 0.8642
C1CCC(OCCN2CCN(CCOC3CCCCC3)CC2)CC1 | -3.016
COCC(Nc1ncnc2sc(C)c(C)c12)c1ccnn1C (stereo not drawn) | 5.679
O=C(O)c1cc(S(=O)(=O)N2CCOc3ccccc32)ccc1F | 1.559
CCn1ncc(Nc2[nH]cnc3nncc2-3)c1C | 2.365
CNC(=O)C1CCC(NC(=O)N(C)Cc2c(C)noc2C)CC1 (stereo not drawn) | 3.489
O=C1COC2(CCN(S(=O)(=O)C3CC3)CC2)CN1c1cccnc1 | 2.351
CCC(CC)CS(=O)(=O)NC(=O)C1CCC1 | -1.312
CCCc1nc(N2CC[C@@H](c3ccc4ccccc4c3)[C@H](O)C2)no1 | -4.505
CCN1CCCC1CN(Cc1ccoc1)CC1CCN(CCOC)CC1 (stereo not drawn) | -0.9877
O=C(c1cncc(Br)c1)N1CCC(O)(Cn2ccc3ccncc32)CC1 | -0.2508
CN1CCN(Cc2cnc3n2CCN(C(=O)N2CCCC2)C3)CC1 | -7.49
O=C(CCOc1ccccc1)NS(=O)(=O)Cc1ccccc1 | 1.679
COc1ccc(C)cc1C(C)NS(=O)(=O)c1ccc2c(c1)CCC(=O)N2 (stereo not drawn) | -4.106

Measurements from “University of Dundee, Small-Polar-MMV Screening Library” (2021), ChEMBL document CHEMBL3988442.